For part of these data: Not every detail of the peptide structures is certain; ends, links or a residue may be inferred. For part of these data: At least one structure is not confirmed: it was looked up by name or label, or the drawing left a doubt. Where no end group is shown, it is not given here.
How the values were obtained:
cathelicidin = test: qPCR of cathelicidin mRNA in cultured keratinocytes; assay type: cell-based, human
Method: (§1) Cell culture and stimuli. Human keratinocytes were grown in serum-free EpiLife® cell culture media (Cascade Biologics; Portland, Oreg.) containing 0.06 mM Ca2+ and 1× EpiLife® defined growth supplement (EDGS) at 37° C. under standard tissue culture conditions. Stock cultures were maintained for up to five passages in this media with the addition of 50 U/mL penicillin and 50 μg/mL streptomycin. HaCaT keratinocytes were cultured in DMEM (Sigma, St. Louis, Mo.) with 10% FCS. Cells at 50-70% confluence were stimulated in fresh medium after preincubation with 1,25(OH)2 vitamin D3 (1,25D3; 0.1-100 nM, 4-24 h; Sigma). Alternatively, NHEK were stimulated in the presence of 1,25D3 (0.1-100 nM). Stimuli included TLR2,6 ligands Malp-2 (0.001-0.5 μg/ml; Alexis Biochemicals, Carlsbad, Calif.), FSL-1 (1-2 μg/ml, Invivogen, San Diego, Calif.) and zymosan (50 μg/ml; Invivogen), as well as flagellin (50 ng/ml; Alexis), LPS (1 μg/ml; Sigma), lipoteichoic acid (LTA; 10 μg/ml; Sigma), 19 kDA lipopeptide (10 μg/ml, a kind gift from S. Krutzik, Division of Dermatology, UCLA), CpG DNA (10 μg/ml; Sigma), Ca2+ (1.7 mM), LPS (1 μg/ml; Sigma), TNFα (20 ng/ml; Chemicon Temecula, Calif.) and TGFβ1 (0.1-1 μg/ml; R&D Systems, Minneapolis, Minn.). A TLR2 blocking antibody (αTLR2; clone TL2.1, 5 μg/ml, eBioscience, San Diego, Calif.) was utilized to investigate the role of TLR2 signaling. […]
(§2) Real-time RT-PCR (qPCR). […] Expression of cathelicidin and GAPDH was analysed by real-time RT-PCR. […] Fold induction relative to the vehicle treated control in in vitro experiments was calculated using the comparative Ct method, where ΔΔCt is ΔCt(stimulant)-ΔCt(vehicle), ΔCt is Ct(gene)-Ct(GAPDH) and Ct is the cycle at which an arbitrary detection threshold is crossed. For quantification of transcript abundance in tissue samples target gene expression was normalized to GAPDH and compared to non-treated or non-injured skin.

CD14 = test: qPCR of CD14 mRNA in cultured keratinocytes; assay type: cell-based, human
Method: as §1, §2

TLR2 = test: qPCR of TLR2 mRNA in cultured keratinocytes; assay type: cell-based, human; conditions: pretreatment with antagonist 10^−7M
Method: (§3) Cell culture and stimuli. Human keratinocytes were grown in serum-free EpiLife® cell culture media (Cascade Biologics; Portland, Oreg.) containing 0.06 mM Ca2+ and 1× EpiLife® defined growth supplement (EDGS) at 37° C. under standard tissue culture conditions. Stock cultures were maintained for up to five passages in this media with the addition of 50 U/mL penicillin and 50 μg/mL streptomycin. HaCaT keratinocytes were cultured in DMEM (Sigma, St. Louis, Mo.) with 10% FCS. Cells at 50-70% confluence were stimulated in fresh medium after preincubation with 1,25(OH)2 vitamin D3 (1,25D3; 0.1-100 nM, 4-24 h; Sigma). Alternatively, NHEK were stimulated in the presence of 1,25D3 (0.1-100 nM). […]
as §2

CYP24A1 = test: qPCR of CYP24A1 mRNA in cultured keratinocytes; assay type: cell-based, human; conditions: butyrate 2 mM with 1,25D3 10^−8M, 24 hours
Method: as §3, §2

acetylated histone H4 = test: Histone H4 acetylation in keratinocytes (immunofluorescence, Western blot); assay type: cell-based, human; conditions: NHEK stimulated with butyrate or TLR ligand
Method: Panel a; Immunofluorescence staining of acetylated histone H4 protein in NHEK treated with HDACi in the presence or absence of 1,25D3. […] Panel b: Western blot of acetylated histone 4 from keratinocytes treated with the HDACi butyrate or TLR agonists. […] Bar=30 μM.
The abundance of acetylated histone was directly measured to confirm the inhibitory effects of butyrate and TSA on HDACs. […] To determine if changes in histone acetylation occur upon stimulation of keratinocytes with TLR ligands NHEK were stimulated with different TLR ligands and histone acetylation was assessed.

C. albicans = test: Liquid assay, minimum fungicide concentration; assay type: cell-based, Candida albicans
[1] = tested on: enteroinvasive E. coli 029; test: Radial diffusion assay; assay type: cell-based; conditions: radial diffusion and solution assay
[2] = tested on: wild-type S. aureus (clinical isolate); test: Radial diffusion assay; assay type: cell-based; conditions: radial diffusion and solution assay
[3] = pretreatment with antagonist 10^−7M
[4] = SRC3 silenced by siRNA, butyrate 2 mM

CCC(C)n1ncn(-c2ccc(N3CCN(c4ccc(OCC5COC(Cn6cncn6)(c6ccc(Cl)cc6Cl)O5)cc4)CC3)cc2)c1=O (stereo not drawn) [itraconazole]
block of cathelicidin induction by TGF plus 25D3 (cathelicidin; [3]): blocked this effect | block of CD14 induction by TGF plus 25D3 (CD14; [3]): blocked this effect | block of TLR2 induction by TGF plus 25D3 (TLR2): blocked this effect

CCCC(=O)O [butyrate]
CYP24A1 transcript abundance, effect of HDAC inhibition on 1,25D3 stimulation (CYP24A1): further enhanced | acetylation of histone H4 (acetylated histone H4): increased acetylation of histone H4 | restoration of cathelicidin induction by 1,25D3 (cathelicidin; [4]): did not restore | cathelicidin transcript abundance (cathelicidin; butyrate 2 mM alone, 24 hours): did not change cathelicidin transcript abundance | restoration of CD14 induction by 1,25D3 (CD14; [4]): did not restore | CD14 transcript abundance, effect of HDAC inhibition on 1,25D3 stimulation (CD14; butyrate 2 mM with 1,25D3 10^−8M, 24 hours): further enhanced

KSKEKIGKEFKRIVQRIKDFLRNLVPRTES [KS-30]
fungicidal activity against Candida albicans compared to LL-37 (C. albicans): increased fungicidal activity | action against E. coli compared to LL-37 [1]: greatly increased action | action against wild-type S. aureus compared to LL-37 [2]: greatly increased action
